PubChem BioAssay AID1159584 | Peter MacCallum Cancer Centre, 2016
Purpose: 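Genes whose loss is lethal only together with E-cadherin loss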 (primary screen). Cell system: human MCF10A breast epithelial cells, parental and CDH1-null. Knock-down reagent: siRNA against human genes. Detection: 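Cell viability by CellTiter-Glo ATP luminescence, each line scaled to the mean of mock wells across plates, then CDH1-null over parental ratio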. Direction: CDH1-null / parental viability ratio: higher = CDH1-null cells survive relatively better than parental; CDH1-null viability vs mock: higher = more viable CDH1-null cells; parental viability vs mock: higher = more viable parental cells.
The whole screen tested about 18,000 reagents; below is a random part of them. The record does not give: the amount of reagent, the time to read-out.

| Target gene | CDH1-null / parental viability ratio | CDH1-null viability vs mock (fraction of mock) | parental viability vs mock (fraction of mock) |
| --- | --- | --- | --- |
| KLHL26 | 0.99 | 0.73 | 0.74 |
| ZDHHC15 | 0.88 | 0.74 | 0.84 |
| HAUS1 | 1.05 | 0.99 | 0.94 |
| CTSO | 1.14 | 0.91 | 0.8 |
| KICS2 | 0.72 | 0.67 | 0.93 |
| THAP4 | 0.93 | 0.78 | 0.84 |
| CFAP77 | 0.97 | 0.6 | 0.62 |
| POLR1C | 0.88 | 0.88 | 1 |
| TRNT1 | 0.81 | 0.68 | 0.84 |
| IGDCC3 | 1.35 | 0.69 | 0.51 |
| PPP1R3A | 1.28 | 0.83 | 0.65 |
| HMGCR | 0.87 | 0.76 | 0.87 |
| ATP11B | 1.02 | 1.02 | 1 |
| PDCD6IP | 0.87 | 0.79 | 0.91 |
| AK3 | 0.72 | 0.78 | 1.09 |
| NCR3 | 0.88 | 0.67 | 0.76 |
| DCTN5 | 0.64 | 0.56 | 0.88 |
| TTC4 | 0.95 | 0.8 | 0.84 |
| TRPA1 | 1.25 | 1.1 | 0.88 |
| MYL5 | 1.19 | 0.64 | 0.54 |
| ALKBH2 | 0.9 | 0.74 | 0.82 |
| ZNF831 | 1.09 | 0.76 | 0.7 |
| TRAK1 | 1.2 | 0.6 | 0.5 |
| TMEM117 | 1.07 | 0.58 | 0.54 |
| ALKBH4 | 0.89 | 0.62 | 0.7 |
| ATG16L1 | 0.97 | 0.94 | 0.97 |
| HTR1B | 0.86 | 0.93 | 1.08 |
| SAMD9 | 1.22 | 0.88 | 0.72 |
| PDE1A | 0.78 | 0.75 | 0.96 |
| PLEKHF1 | 1.11 | 0.84 | 0.76 |
| SNX19 | 1.48 | 0.86 | 0.58 |
| DHRS1 | 0.98 | 0.8 | 0.82 |
| LAMTOR5 | 0.76 | 0.52 | 0.68 |
| LYG1 | 1.23 | 0.86 | 0.7 |
| GPS2 | 1.13 | 1.13 | 1 |
| MED6 | 1.83 | 0.55 | 0.3 |
| PRAMEF12 | 0.97 | 0.65 | 0.67 |
| BHLHA15 | 1.13 | 0.93 | 0.82 |
| YTHDF1 | 0.92 | 0.78 | 0.85 |
| ABHD17A | 1.07 | 0.88 | 0.82 |
| TMCO4 | 1.33 | 1.12 | 0.84 |
| SLC22A3 | 0.86 | 0.54 | 0.63 |
| KDSR | 1.12 | 0.9 | 0.8 |
| PPP1R27 | 0.97 | 0.93 | 0.96 |
| MCTP1 | 1.09 | 0.85 | 0.78 |
| TRAF6 | 0.91 | 0.85 | 0.93 |
| TIMM23B | 1.54 | 0.4 | 0.26 |
| CTSW | 1.43 | 0.76 | 0.53 |
| THRSP | 0.86 | 0.62 | 0.72 |
| NECTIN3 | 0.8 | 0.66 | 0.82 |
| CLASRP | 0.68 | 0.49 | 0.72 |
| HES4 | 1.79 | 0.68 | 0.38 |
| IFNA2 | 0.85 | 0.76 | 0.89 |
| FOXD4L4 | 0.97 | 0.7 | 0.72 |
| SNAP47 | 0.98 | 0.84 | 0.86 |
| ZNF786 | 1.17 | 0.62 | 0.53 |
| COX8A | 1.01 | 1.03 | 1.02 |
| MBD3L1 | 1.16 | 0.88 | 0.76 |
| HK1 | 1 | 0.88 | 0.88 |
| PDHA1 | 1.15 | 1.08 | 0.94 |
| IDH3B | 1.08 | 0.8 | 0.74 |
| CLCN4 | 1.13 | 0.88 | 0.78 |
| ZRANB3 | 1.01 | 1.25 | 1.24 |
| MARVELD2 | 1.15 | 0.91 | 0.79 |
| VWA7 | 0.84 | 0.76 | 0.9 |
| GRB7 | 1.2 | 1.15 | 0.96 |
| DNAJC21 | 0.9 | 0.7 | 0.78 |
| LOXL3 | 0.95 | 0.72 | 0.76 |
| MCMBP | 1.04 | 1.02 | 0.98 |
| COL4A3 | 0.94 | 0.88 | 0.94 |
| SLC38A11 | 1.02 | 0.51 | 0.5 |
| NFXL1 | 1.06 | 0.94 | 0.89 |
| CDC42 | 1.09 | 0.76 | 0.7 |
| HBB | 1.04 | 0.82 | 0.79 |
| OSM | 1.57 | 0.66 | 0.42 |
| RSAD2 | 0.64 | 0.58 | 0.9 |
| STING1 | 0.69 | 0.35 | 0.51 |
| HMGCS2 | 0.78 | 0.8 | 1.02 |
| NLRC4 | 1.27 | 0.62 | 0.49 |
| SYP | 1.16 | 0.74 | 0.64 |
| CRYGD | 0.98 | 0.9 | 0.92 |
| USP42 | 1.07 | 1.07 | 1 |
| DTX3 | 1.01 | 0.8 | 0.79 |
| CCL3L1 | 0.88 | 0.76 | 0.86 |
| C1orf53 | 1.12 | 0.74 | 0.66 |
| TULP4 | 1 | 0.9 | 0.9 |
| SALL2 | 0.85 | 0.5 | 0.59 |

6 entries from above, reformatted.
Target gene | CDH1-null / parental viability ratio | CDH1-null viability vs mock (fraction of mock) | parental viability vs mock (fraction of mock)
TRPA1 | 1.25 | 1.1 | 0.88
MYL5 | 1.19 | 0.64 | 0.54
ALKBH2 | 0.9 | 0.74 | 0.82
ZNF831 | 1.09 | 0.76 | 0.7
TRAK1 | 1.2 | 0.6 | 0.5
TMEM117 | 1.07 | 0.58 | 0.54
